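Malaria parasite (P. falciparum) lines kept in red blood cells; parasite DNA is measured by SYBR Green fluorescence after lysis, 72 h after compound addition.
Each compound was titrated across a series from about 0.000037 to 29 µM.
The number is the fitted AC50, the concentration giving a half-maximal change in signal; a lower value means higher potency, whether the curve shows a decrease or an increase.
Calls follow the curve class and fit quality: every row here is inconclusive, covering signal-raising curves and weak, poorly fitted, partial or highest-dose-only inhibition curves.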

Values are in µM.
Every entry below has the call inconclusive.
Only part of the assay is shown, chiefly results filed as inconclusive.
Potencies fitted to partial, single-point or poorly fitting curves are rough.

| compound | condition | potency (µM) | curve as filed |
|---|---|---|---|
| `O=[N+]([O-])c1cc([As](=O)(O)O)ccc1O` | JCK | 6.31 | inhibitor, single point |
| `O=[N+]([O-])c1cc([As](=O)(O)O)ccc1O` | P93_24 | 3.548 | inhibitor, single point |
| `O=[N+]([O-])c1cc([As](=O)(O)O)ccc1O` | CP315 | 8.087 | inhibitor, single point |
| `O=[N+]([O-])c1cc([As](=O)(O)O)ccc1O` | CP185 | 3.162 | inhibitor, partial curve |
| `CCC(=O)OC1C(N(C)C)CC(C)O[C@H]1O[C@H]1[C@H](C)[C@@H](O[C@H]2CC(OC)[C@@H](O)C(C)O2)[C@H](C)C(=O)O[C@@H](CC)[C@](C)(O)[C@@H](O)[C@H](C)C(=O)[C@@H](C)C[C@]1(C)O` (some centres undefined) | CP286 | 10 | inhibitor, partial curve |
| `CCC(=O)OC1C(N(C)C)CC(C)O[C@H]1O[C@H]1[C@H](C)[C@@H](O[C@H]2CC(OC)[C@@H](O)C(C)O2)[C@H](C)C(=O)O[C@@H](CC)[C@](C)(O)[C@@H](O)[C@H](C)C(=O)[C@@H](C)C[C@]1(C)O` (some centres undefined) | TAB165 | 14.13 | inhibitor, partial curve, poor fit |
| `CCC(=O)OC1C(N(C)C)CC(C)O[C@H]1O[C@H]1[C@H](C)[C@@H](O[C@H]2CC(OC)[C@@H](O)C(C)O2)[C@H](C)C(=O)O[C@@H](CC)[C@](C)(O)[C@@H](O)[C@H](C)C(=O)[C@@H](C)C[C@]1(C)O` (some centres undefined) | CP256 | 3.548 | inhibitor, partial curve |
| `CCC(=O)OC1C(N(C)C)CC(C)O[C@H]1O[C@H]1[C@H](C)[C@@H](O[C@H]2CC(OC)[C@@H](O)C(C)O2)[C@H](C)C(=O)O[C@@H](CC)[C@](C)(O)[C@@H](O)[C@H](C)C(=O)[C@@H](C)C[C@]1(C)O` (some centres undefined) | N140 | 7.943 | inhibitor, partial curve |
| `CCC(=O)OC1C(N(C)C)CC(C)O[C@H]1O[C@H]1[C@H](C)[C@@H](O[C@H]2CC(OC)[C@@H](O)C(C)O2)[C@H](C)C(=O)O[C@@H](CC)[C@](C)(O)[C@@H](O)[C@H](C)C(=O)[C@@H](C)C[C@]1(C)O` (some centres undefined) | CP191 | 5.623 | inhibitor, partial curve |
| `CCC(=O)OC1C(N(C)C)CC(C)O[C@H]1O[C@H]1[C@H](C)[C@@H](O[C@H]2CC(OC)[C@@H](O)C(C)O2)[C@H](C)C(=O)O[C@@H](CC)[C@](C)(O)[C@@H](O)[C@H](C)C(=O)[C@@H](C)C[C@]1(C)O` (some centres undefined) | P93_24 | 3.981 | inhibitor, partial curve, poor fit |
| `CCC(=O)OC1C(N(C)C)CC(C)O[C@H]1O[C@H]1[C@H](C)[C@@H](O[C@H]2CC(OC)[C@@H](O)C(C)O2)[C@H](C)C(=O)O[C@@H](CC)[C@](C)(O)[C@@H](O)[C@H](C)C(=O)[C@@H](C)C[C@]1(C)O` (some centres undefined) | CP185 | 0.3981 | inhibitor, full curve, poor fit |
| `CCC(=O)OC1C(N(C)C)CC(C)O[C@H]1O[C@H]1[C@H](C)[C@@H](O[C@H]2CC(OC)[C@@H](O)C(C)O2)[C@H](C)C(=O)O[C@@H](CC)[C@](C)(O)[C@@H](O)[C@H](C)C(=O)[C@@H](C)C[C@]1(C)O` (some centres undefined) | CP217 | 6.31 | inhibitor, partial curve |
| `CCC(=O)OC1C(N(C)C)CC(C)O[C@H]1O[C@H]1[C@H](C)[C@@H](O[C@H]2CC(OC)[C@@H](O)C(C)O2)[C@H](C)C(=O)O[C@@H](CC)[C@](C)(O)[C@@H](O)[C@H](C)C(=O)[C@@H](C)C[C@]1(C)O` (some centres undefined) | CP269 | 6.012 | inhibitor, partial curve, poor fit |
| `CCC(=O)OC1C(N(C)C)CC(C)O[C@H]1O[C@H]1[C@H](C)[C@@H](O[C@H]2CC(OC)[C@@H](O)C(C)O2)[C@H](C)C(=O)O[C@@H](CC)[C@](C)(O)[C@@H](O)[C@H](C)C(=O)[C@@H](C)C[C@]1(C)O` (some centres undefined) | GB4 | 9.528 | inhibitor, partial curve |
| `CCC(=O)OC1C(N(C)C)CC(C)O[C@H]1O[C@H]1[C@H](C)[C@@H](O[C@H]2CC(OC)[C@@H](O)C(C)O2)[C@H](C)C(=O)O[C@@H](CC)[C@](C)(O)[C@@H](O)[C@H](C)C(=O)[C@@H](C)C[C@]1(C)O` (some centres undefined) | CP329 | 6.012 | inhibitor, partial curve |
| `CCC(=O)OC1C(N(C)C)CC(C)O[C@H]1O[C@H]1[C@H](C)[C@@H](O[C@H]2CC(OC)[C@@H](O)C(C)O2)[C@H](C)C(=O)O[C@@H](CC)[C@](C)(O)[C@@H](O)[C@H](C)C(=O)[C@@H](C)C[C@]1(C)O` (some centres undefined) | CP252 | 5.012 | inhibitor, partial curve |
| `CCC(=O)OC1C(N(C)C)CC(C)O[C@H]1O[C@H]1[C@H](C)[C@@H](O[C@H]2CC(OC)[C@@H](O)C(C)O2)[C@H](C)C(=O)O[C@@H](CC)[C@](C)(O)[C@@H](O)[C@H](C)C(=O)[C@@H](C)C[C@]1(C)O` (some centres undefined) | ICS | 11.22 | inhibitor, single point |
| `CCC(=O)OC1C(N(C)C)CC(C)O[C@H]1O[C@H]1[C@H](C)[C@@H](O[C@H]2CC(OC)[C@@H](O)C(C)O2)[C@H](C)C(=O)O[C@@H](CC)[C@](C)(O)[C@@H](O)[C@H](C)C(=O)[C@@H](C)C[C@]1(C)O` (some centres undefined) | AA1029 | 11.22 | inhibitor, single point |
| `CCC(=O)OC1C(N(C)C)CC(C)O[C@H]1O[C@H]1[C@H](C)[C@@H](O[C@H]2CC(OC)[C@@H](O)C(C)O2)[C@H](C)C(=O)O[C@@H](CC)[C@](C)(O)[C@@H](O)[C@H](C)C(=O)[C@@H](C)C[C@]1(C)O` (some centres undefined) | CP215 | 5.358 | inhibitor, partial curve, poor fit |
| `CCC(=O)OC1C(N(C)C)CC(C)O[C@H]1O[C@H]1[C@H](C)[C@@H](O[C@H]2CC(OC)[C@@H](O)C(C)O2)[C@H](C)C(=O)O[C@@H](CC)[C@](C)(O)[C@@H](O)[C@H](C)C(=O)[C@@H](C)C[C@]1(C)O` (some centres undefined) | ECU | 8.912 | inhibitor, single point |
| `CCC(=O)OC1C(N(C)C)CC(C)O[C@H]1O[C@H]1[C@H](C)[C@@H](O[C@H]2CC(OC)[C@@H](O)C(C)O2)[C@H](C)C(=O)O[C@@H](CC)[C@](C)(O)[C@@H](O)[C@H](C)C(=O)[C@@H](C)C[C@]1(C)O` (some centres undefined) | DIV17 | 7.569 | inhibitor, partial curve, poor fit |
| `CCOC(=O)c1c[nH]c2cc(OCC(C)C)c(OCC(C)C)cc2c1=O` | CP201 | 0.6746 | inhibitor, full curve, poor fit |
| `CCOC(=O)c1c[nH]c2cc(OCC(C)C)c(OCC(C)C)cc2c1=O` | CP192 | 0.0536 | inhibitor, full curve, poor fit |

The first 2 entries again:

compound,condition,potency (µM),curve as filed
O=[N+]([O-])c1cc([As](=O)(O)O)ccc1O,JCK,6.31,"inhibitor, single point"
O=[N+]([O-])c1cc([As](=O)(O)O)ccc1O,P93_24,3.548,"inhibitor, single point"

The results are deposited in PubChem (AID504749; NCATS, 2011).